PubChem BioAssay AID1159584 – Peter MacCallum Cancer Centre – 2016

Screen: 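Genes that CDH1-null MCF10A cells selectively depend on to survive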 (primary screen)
Cell system: human MCF10A breast epithelial cells, parental and CDH1-null
Reagents: siRNA against human genes
Read-out: 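ATP luminescence (CellTiter-Glo) viability per line relative to mean mock wells over all plates, and the ratio of CDH1-null to parental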
Reading the numbers: CDH1-null / parental viability ratio: higher = CDH1-null cells survive relatively better than parental; CDH1-null viability vs mock: higher = more viable CDH1-null cells; parental viability vs mock: higher = more viable parental cells
The deposit covers about 18,000 reagents; shown is a random part of them. Not given: the amount of reagent, the time to read-out.

| gene | CDH1-null / parental viability ratio | CDH1-null viability vs mock (fraction of mock) | parental viability vs mock (fraction of mock) |
| --- | --- | --- | --- |
| ADM2 (adrenomedullin 2) | 1.07 | 0.94 | 0.88 |
| MVK (mevalonate kinase) | 1.02 | 0.62 | 0.61 |
| TMSB10 (thymosin beta 10) | 0.86 | 0.62 | 0.72 |
| MTREX (Mtr4 exosome RNA helicase) | 1.26 | 0.48 | 0.38 |
| PPP4R4 (protein phosphatase 4 regulatory subunit 4) | 1.77 | 0.62 | 0.35 |
| TGFBRAP1 | 0.94 | 0.9 | 0.96 |
| MAGEB2 (MAGE family member B2) | 1.18 | 0.92 | 0.78 |
| NIBAN2 (niban apoptosis regulator 2) | 0.97 | 0.72 | 0.74 |
| WDR33 (WD repeat domain 33) | 0.75 | 0.66 | 0.88 |
| EEF2KMT (eukaryotic elongation factor 2 lysine methyltransferase) | 0.99 | 0.88 | 0.89 |
| ANKRD28 (ankyrin repeat domain 28) | 1.04 | 0.88 | 0.85 |
| LRRFIP1 (LRR binding FLII interacting protein 1) | 0.82 | 0.82 | 1 |
| PPP2R1A (protein phosphatase 2 scaffold subunit Aalpha) | 1.42 | 0.95 | 0.67 |
| FOXD4L4 (forkhead box D4 like 4) | 0.97 | 0.7 | 0.72 |
| C1orf220 (chromosome 1 putative open reading frame 220) | 1 | 0.64 | 0.64 |
| REXO2 (RNA exonuclease 2) | 1.15 | 0.97 | 0.84 |
| SLC9A9 | 1.16 | 1.02 | 0.88 |
| IAH1 (isoamyl acetate hydrolyzing esterase 1 (putative)) | 1.55 | 0.79 | 0.51 |
| PASD1 (PAS domain containing repressor 1) | 0.96 | 0.86 | 0.9 |
| IGFL3 (IGF like family member 3) | 0.84 | 0.47 | 0.56 |
| FAP (fibroblast activation protein alpha) | 1.22 | 0.94 | 0.77 |
| EYA2 (EYA transcriptional coactivator and phosphatase 2) | 1.45 | 0.8 | 0.55 |
| RPL29 (ribosomal protein L29) | 1.05 | 0.78 | 0.74 |
| RPGRIP1L (RPGRIP1 like) | 0.9 | 0.64 | 0.71 |
| PDIA3 (protein disulfide isomerase family A member 3) | 1.62 | 0.52 | 0.32 |
| TAF1L (TATA-box binding protein associated factor 1 like) | 1.12 | 0.95 | 0.85 |
| GYPA (glycophorin A (MNS blood group)) | 1.07 | 0.92 | 0.86 |
| DEFB131A (defensin beta 131A) | 1.19 | 1.02 | 0.86 |
| ETNK2 (ethanolamine kinase 2) | 0.98 | 0.54 | 0.55 |
| DEFB112 (defensin beta 112) | 0.92 | 0.47 | 0.51 |
| ANP32CP (acidic nuclear phosphoprotein 32 family member C, pseudogene) | 0.89 | 0.8 | 0.9 |
| EMC2 (ER membrane protein complex subunit 2) | 1.06 | 1 | 0.94 |
| KCNIP1 (potassium voltage-gated channel interacting protein 1) | 1.17 | 1.02 | 0.87 |
| TBC1D1 (TBC1 domain family member 1) | 0.91 | 0.89 | 0.98 |
| STAP2 (signal transducing adaptor family member 2) | 1.14 | 0.96 | 0.84 |
| SMARCAD1 (SNF2 related chromatin remodeling ATPase with DExD box 1) | 1.02 | 0.88 | 0.86 |
| KRTAP10-9 (keratin associated protein 10-9) | 1.1 | 0.69 | 0.63 |
| TARBP1 (tRNA guanosine 2 -O-methyltransferase TARBP1) | 1.11 | 1 | 0.9 |
| SLC35C1 | 1.02 | 0.43 | 0.42 |
| PRM1 (protamine 1) | 0.96 | 0.65 | 0.68 |
| ZNF585A (zinc finger protein 585A) | 1.12 | 1 | 0.89 |
| CLPSL2 (colipase like 2) | 0.94 | 0.68 | 0.72 |
| LRAT (lecithin retinol acyltransferase) | 1 | 0.72 | 0.72 |
| YJU2 (YJU2 splicing factor homolog) | 0.79 | 0.62 | 0.78 |
| MLH1 (mutL homolog 1) | 1.17 | 1.1 | 0.94 |
| SAMD1 (sterile alpha motif domain containing 1) | 1.38 | 0.84 | 0.61 |
| ZNF433 (zinc finger protein 433) | 0.68 | 0.49 | 0.72 |
| POLR2J (RNA polymerase II subunit J) | 0.74 | 0.55 | 0.74 |
| TDP1 (tyrosyl-DNA phosphodiesterase 1) | 1.24 | 1.02 | 0.82 |
| NIPAL1 (NIPA like domain containing 1) | 1.11 | 0.6 | 0.54 |
| TAS2R60 (taste 2 receptor member 60) | 1.23 | 1.18 | 0.96 |
| ZFP91 (ZFP91 zinc finger protein, atypical E3 ubiquitin ligase) | 0.75 | 0.68 | 0.91 |
| PPIL4 (peptidylprolyl isomerase like 4) | 1.02 | 0.94 | 0.92 |
| AGTR2 (angiotensin II receptor type 2) | 1.48 | 0.92 | 0.62 |
| IFITM5 (interferon induced transmembrane protein 5) | 1.2 | 1.06 | 0.88 |
| DKK3 (dickkopf Wnt signaling pathway inhibitor 3) | 0.96 | 0.52 | 0.54 |
| SMARCC2 (SWI/SNF related BAF chromatin remodeling complex subunit C2) | 0.98 | 0.96 | 0.98 |
| OR2D3 (olfactory receptor family 2 subfamily D member 3) | 1 | 0.56 | 0.56 |
| SLIT2 (slit guidance ligand 2) | 1.06 | 0.7 | 0.66 |
| VTI1B (vesicle transport through interaction with t-SNAREs 1B) | 1.07 | 0.86 | 0.8 |
| KRT13 (keratin 13) | 1.07 | 0.59 | 0.55 |
| IGFBPL1 (insulin like growth factor binding protein like 1) | 0.87 | 0.68 | 0.78 |
| PIGY (phosphatidylinositol glycan anchor biosynthesis class Y) | 0.77 | 0.72 | 0.93 |
| AKAP5 (A-kinase anchoring protein 5) | 0.82 | 0.9 | 1.1 |
| MAP3K14 (mitogen-activated protein kinase kinase kinase 14) | 0.96 | 0.76 | 0.79 |
| CX3CR1 (C-X3-C motif chemokine receptor 1) | 0.62 | 0.55 | 0.88 |
| SCPEP1 (serine carboxypeptidase 1) | 1.02 | 0.98 | 0.96 |
| FCRL1 (Fc receptor like 1) | 0.96 | 0.79 | 0.82 |
